± gives the standard deviation. The list shows a part of the results. Many entries were measured with a wide error.
tested on: EfPiwi piRISC loaded with L1MC piRNA (26 nt); experiment: pre-steady-state target cleavage rate (min^-1); guide: L1MC piRNA 5'p-UAACUAAAUACUAUGCAAGCUGUAGG; MIWI and MILI are mouse PIWI proteins and EfPiwi is from a freshwater sponge; tags in brackets are library labels; higher = faster piRNA-guided slicing of the target; details: auxiliary factor: 500 nM Ephydatia muelleri Gtsf1
Procedure, shortened: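 The pre-steady-state cleavage rate came from a burst-and-steady-state fit to pooled data from three Cleave-'n-Seq trials, in which uncleaved targets were sequenced and normalised to depth and to weakly complementary targets. Each reaction held 0.1 nM transcribed, DNA-blocked target RNA library and 1 nM active affinity-purified piRISC carrying one synthetic guide, with or without 500 nM GTSF1 partner protein, in HEPES–potassium acetate buffer at 33 °C for 0–8 or 0–960 min. k3 was capped at 0.0001 min^-1.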

Row | Sequence | pre-steady-state target cleavage rate
1 | UCCUCCUACAGCUUGCAUUGUAUUUAGUAA | 0.00648 ± 0.0029
2 | UCCUGGAUGUGCUCUGCAUAGUAUUUAGUUA | 0.00925 ± 0.0031
3 | UCCUCGUAGAGCUUGCAUAGUAUUUAGUUA | 0.0385 ± 0.0086
4 | UCCUCCUACAGCUAGCAUAGUAAUUAGUUA | 0.00535 ± 0.002
5 | UCCUGGAUGUCGAACGAUAGUGAUUUAGUUA | < 0.0001
6 | UCCUGGAUCAGCUUGCUUAGUAUUUAGUAA | 0.00325 ± 0.0034
7 | UCCUCCUACUCCUUGCAUAGUAUUUAGUUA | 0.165 ± 0.046
8 | UCCUCGUACAGCUUGCAUAGUAUUAAGUUA | 0.00547 ± 0.0018
9 | UCCUGCUACUCCUUGCAUAGUAUUUAGUAA | 0.00443 ± 0.003
10 | UCCUCCAUACAGCUUGCAUAGUAUUUAGUUA | 0.00733 ± 0.0027
11 | UCCUGGAUCAGCUUGCUUAGUAUUUACUUA | 0.00128 ± 0.0039
12 | UCCUGGAUGUCGAACGAUAGUAUUAUAGUUA | < 0.0001
13 | UCCUGGUACAGCUUGGAAAGUAUUUAGUUA | 0.00224 ± 0.004
14 | UCCUGGAUCAGCUUGCAUAGUAUUUAGUA | 0.00808 ± 0.0034
15 | UCCUCCUACAGCUUGCUUAGUAUUUAGUUA | 0.0424 ± 0.012
16 | UCCUGGAACAGCUUGCAUAGAAUUUAGAAA | 0.00137 ± 0.0034
17 | UCCUCCUAAAGCUUGCAUAGUAUUUAGUUA | 0.00604 ± 0.0023
18 | UCCUCCUACAGCUUGCAUAGUUUAUAGUUA | 0.00613 ± 0.0033

An excerpt of these results, with each value named:
UCCUCCUACUCCUUGCAUAGUAUUUAGUUA
  pre-steady-state target cleavage rate: 0.165 ± 0.046
UCCUCGUACAGCUUGCAUAGUAUUAAGUUA
  pre-steady-state target cleavage rate: 0.00547 ± 0.0018

(listing goes on)

Row | Sequence | pre-steady-state target cleavage rate
19 | UCCUGGAUGUCGAACGUAAGUAUUUAGUUU [g2:g12:cont:t1U] | 0.000381 ± 0.015
20 | UCCUGGAACAGCUUGCAUAGAAUAUAGUUA | 0.000589 ± 0.0092
21 | UCCUCCUACAGCUUGCAUAGUAUUUUAGUUA | 0.0456 ± 0.014
22 | UCCUCCUACAGCUUGCAUAGUAUUUAGAUA | 0.00505 ± 0.0025
23 | UCCUGGUACAGCUUGCAUUGAAUUUAGUUA | 0.000511 ± 0.013
24 | UCCUGGAUCAGCUUGCAAAGUAUUUAGUUA | 0.0218 ± 0.0057
25 | UCCUCCUACAUCUUGCAUAGUAUUUAGUUA | 0.0662 ± 0.02
26 | UCCUGGAACAGCUAGCAUAGUAUAUAGUUA | 0.00219 ± 0.0031
27 | UCCUGCUAGAGCUUGCAUAGUAAUUAGUUA | 0.00471 ± 0.0019
28 | UCCUGGAACAGCUUGCAUAGUAAUUAGUUA | 0.00814 ± 0.0027
29 | UCCUGGAACAGCUCUGCAUAGUAUUUAGUUA | 0.0165 ± 0.005
30 | UCCUGGAUGUGAUUGCAUAGUAUUUAGUUA | 0.00623 ± 0.0031
31 | UCCUGGAUGAGCAUGCAUAGUUUUUAGUUA | 0.00108 ± 0.0055
32 | UCCUGGAUGAGCUUGCAUUGUAUUUAGUAA | 0.00311 ± 0.0025
33 | UCCUGGAUGUGCUUGCAUAGUAUUUCGUUA | 0.00179 ± 0.0018
34 | UCCUCCUACAGCUUGCAUUGUAUUUACUUA | 0.00243 ± 0.0028
35 | UCCUGGAUGAGCUUGAAUAGUAUUUAGUUA | 0.00419 ± 0.0027

same assay, conditions: auxiliary factor: none (no Gtsf1)

Row | Sequence | pre-steady-state target cleavage rate
36 | UCCUGCUACACCUUGGAUAGUAUUUAGUUA | 0.000612 ± 0.014
37 | UCCUGGAACAGCUAGCAUAGUAAUUAGUUA | 0.0005 ± 0.014
38 | UCCUGCUACAGCUUGCAUUGUAUUUACUUA | 0.000339 ± 0.017
39 | UCCUGGAUGUCCUUGCAUAGUAUUUAGUUU [g2:g19:cont:t1U] | 0.00145 ± 0.0068
40 | UCCUCCUACAGCUAGCAUAGUUUUUAGUUA | 0.000966 ± 0.0061
